{"source": "PubChem BioAssay AID651640", "about": "(Broad Institute, 2012)", "note": "Where “and” joins values, the source holds several entries; their conditions need not be identical. Equal entries are not always repeated. Screen size: about 350,000 compounds; about 6,000 (1.7%) were called active. This list was built around the results that the source calls inconclusive (neither active nor inactive); the mix of calls is not that of the screen. No stated cut-off is given here; in the data, active means CPE inhibition above about 20% (passing the limit was not always enough); inconclusive means no clear call, values can overlap the other calls; tested in BHK-21 cells. Some compounds were tested as several samples or in several runs, with calls that do not always agree.", "data": [{"assay": "protection of cells from dengue 2 killing – plate reader, single concentration, primary screen (AID 651640);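 further: 0% = median of neutral control wells and 100% = median of positive control wells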", "details": "DENV2-infected cells, cytopathic effect rescue, at 9.99 µM, active compounds read high", "values": [{"compound": "COc1ccc(C#Cc2ccc([C@H]3[C@H](CO)N4CCCCN(C(=O)Nc5ccc(F)cc5)C[C@@H]34)cc2)cc1", "CPE inhibition": "inactive: -5.92%"}, {"compound": "CC(=O)NC(c1ccc(F)c(F)c1)c1nc(-c2ccc(F)c(Cl)c2)cs1", "note": "(centres undefined)", "CPE inhibition": "inconclusive: 30.4%"}, {"compound": "Cc1ccc(S(=O)(=O)N[C@@H]2CC[C@@H](CC(=O)NCCCN(C)C)O[C@@H]2CO)cc1", "CPE inhibition": "inactive: -0.823%"}, {"compound": "C[C@H](O)C#Cc1ccc([C@H]2[C@H]3CN(S(=O)(=O)Cc4ccccc4)CCCCN3[C@H]2CO)cc1", "CPE inhibition": "inconclusive: 20.8%"}, {"compound": "C[C@@H]1CN([C@H](C)CO)C(=O)c2cc(NC(=O)Cc3ccccc3)ccc2O[C@@H]1CN(C)Cc1ccc(C(=O)O)cc1", "CPE inhibition": "inconclusive: 42.3%"}, {"compound": "CC(=O)N(CCCNC(=O)c1ccccc1)C(=O)c1ccccc1", "CPE inhibition": "inconclusive: 21%"}, {"compound": "COc1ccc(C2c3cc(OC)c(OC)cc3CCN2C(=O)c2cccc([N+](=O)[O-])c2)cc1OC", "note": "(centres undefined)", "CPE inhibition": "inconclusive: 26.7%"}, {"compound": "CCc1nnc(NC(=O)CCC(=O)NC2CCCCCCC2)s1", "CPE inhibition": "inconclusive: 40.5%"}, {"compound": "C[C@@H]1CN([C@H](C)CO)C(=O)c2cccc(NC(=O)c3nc4ccccc4s3)c2O[C@@H]1CN(C)Cc1ccc(C(F)(F)F)cc1", "CPE inhibition": "inactive: -3.47%"}, {"compound": "C[C@@H]1CN([C@@H](C)CO)C(=O)c2cc(NC(=O)CCC(F)(F)F)ccc2O[C@@H](C)CCCCO[C@@H]1CN(C)S(=O)(=O)c1cn(C)cn1", "CPE inhibition": "inconclusive: 37.7%"}, {"compound": "O=C(C[C@@H]1CC[C@@H]2[C@H](COC[C@H](O)CN2Cc2cccc(C(F)(F)F)c2)O1)NCc1ccncc1", "CPE inhibition": "inactive: -4.77%"}, {"compound": "N#Cc1ccc(S(=O)(=O)N2CCN(Cc3cccs3)CC2)cc1", "CPE inhibition": "inconclusive: 39.4%"}, {"compound": "COc1ccccc1NC(=O)N(C)C[C@@H]1Oc2ncc(C#CCN(C)C)cc2C(=O)N([C@@H](C)CO)C[C@H]1C", "CPE inhibition": "inactive: 0.771%"}, {"compound": "C[C@H](CO)N1C[C@H](C)[C@@H](CN(C)C(=O)Cc2ccccc2)OCCCC[C@H](C)Oc2ccc(NC(=O)C3CCCCC3)cc2C1=O", "CPE inhibition": "inconclusive: 59.8%"}, {"compound": "C[C@@H]1CCCCO[C@H](CN(C)C(=O)CCCN(C)C)[C@@H](C)CN([C@@H](C)CO)C(=O)c2cc(NC(=O)Nc3ccc4c(c3)OCO4)ccc2O1", "CPE inhibition": "active: 47.4%"}, {"compound": "O=S(=O)(Nc1cccc(S(=O)(=O)N2CCCC2)c1)c1ccccc1F", "CPE inhibition": "inactive: -3.39%"}, {"compound": "O=C(Cc1ccncc1)N1C[C@@H]2N[C@H](C1)C2c1ccc(/C=C/c2ccccc2)cc1", "note": "(some centres undefined)", "CPE inhibition": "inactive: 13% and inactive: 10.2%"}, {"compound": "C[C@@H]1CN([C@H](C)CO)C(=O)c2cc(NC(=O)Cc3cn(C)c4ccccc34)ccc2O[C@H]1CN(C)Cc1ccc(Cl)c(Cl)c1", "CPE inhibition": "inactive: 0.278%"}, {"compound": "O=C(CN1C(=O)NC2(CCCCC2)C1=O)Nc1ccccc1N1CCCC1", "CPE inhibition": "inconclusive: 24.4%"}, {"compound": "COc1ccc(-c2nc(Cn3c(SCc4ccc(C)cc4)nc4ccncc43)c(C)o2)cc1OC", "CPE inhibition": "inactive: 2.26%"}, {"compound": "CC(C)(C)OC(=O)N1O[C@H]2CC1[C@@H]1[C@@H]2N=NN1CCc1ccncc1", "CPE inhibition": "inconclusive: 66.4%"}, {"compound": "O=C(N[C@H]1C=C[C@H](CC(=O)N2CCOCC2)O[C@@H]1CO)c1ccc2c(c1)OCO2", "CPE inhibition": "inconclusive: 28.8%"}, {"compound": "O=C(Cc1cccnc1)N1CC(=O)N2[C@H](CO)[C@H](c3ccc(C4=CCCC4)cc3)[C@@H]2C1", "CPE inhibition": "inconclusive: 25.2%"}, {"compound": "COc1cccc(CNC(=O)CN2c3cccc4cccc(c34)S2(=O)=O)c1", "CPE inhibition": "inconclusive: 48.5%"}, {"compound": "COCC(=O)N1CC(=O)N2[C@H](C1)[C@@H](c1ccc(C#CC3CCCC3)cc1)[C@@H]2CO", "CPE inhibition": "inconclusive: 45%"}, {"compound": "C[C@H](NC(=O)C[C@H]1C=C[C@@H](NC(=O)C2CCC2)[C@@H](CO)O1)c1ccccc1", "CPE inhibition": "inactive: -7.1%"}, {"compound": "COc1ccc(NC(=O)N(C)C[C@@H]2OCCCC[C@@H](C)Oc3ccc(NS(=O)(=O)c4ccc(Cl)cc4)cc3C(=O)N([C@@H](C)CO)C[C@H]2C)cc1", "CPE inhibition": "inactive: 7.55%"}, {"compound": "N#CC1(NC(=O)CSc2ccccn2)CCCCC1", "CPE inhibition": "active: 111%"}, {"compound": "O=C(NCCC(=O)N1CCN(S(=O)(=O)c2ccc(F)cc2)CC1)Nc1ccccc1", "CPE inhibition": "inconclusive: 21.8%"}, {"compound": "COCC(=O)Nc1ccc2c(c1)C(=O)N(C)C[C@@H](OC)[C@@H](C)CN(C(=O)c1ccccn1)[C@H](C)CO2", "CPE inhibition": "active: 23.3%"}, {"compound": "COc1cccc(C2N(c3cccc(Cl)c3)C(=O)C3CCCN32)c1", "note": "(centres undefined)", "CPE inhibition": "inconclusive: 46.4%"}, {"compound": "COc1ncnc(NS(=O)(=O)c2ccc(N)cc2)c1OC", "CPE inhibition": "inconclusive: 21.5%"}, {"compound": "C[C@H](CO)N1C[C@H](C)[C@@H](CN(C)Cc2ccc(O)cc2)OCc2cnnn2CCCC1=O", "CPE inhibition": "active: 41.9%"}, {"compound": "C[C@@H]1CN([C@@H](C)CO)S(=O)(=O)c2ccc(C#CCN(C)C)cc2O[C@H]1CN(C)C", "CPE inhibition": "inconclusive: 21%"}, {"compound": "COc1ccccc1CNC(=O)C[C@H]1C=C[C@H](NC(=O)CN(C)C)[C@@H](CO)O1", "CPE inhibition": "inactive: -1.72%"}, {"compound": "CC1(Cc2cccc(C#N)c2)C(=O)Nc2ccc(-c3cccc(C(F)(F)F)c3)cc21", "note": "(centres undefined)", "CPE inhibition": "active: 94.5%"}, {"compound": "O=C(CNCc1ccccc1)NCCCN1CCCC1=O", "CPE inhibition": "inactive: -3.36%"}, {"compound": "C[C@H]1CN([C@@H](C)CO)C(=O)Cc2cc(NS(=O)(=O)c3cn(C)cn3)ccc2O[C@@H]1CN(C)Cc1ccc(C(=O)Nc2ccccc2N)cc1", "CPE inhibition": "active: 21.3%"}, {"compound": "Cc1ccc([C@H]2N[C@]3(CCCN(Cc4ccc(Cl)cc4)C3=O)[C@H]3C(=O)N(Cc4ccccc4)C(=O)[C@@H]23)cc1", "CPE inhibition": "inconclusive: 45.3%"}, {"compound": "COCC#Cc1ccc([C@@H]2[C@H](CO)N3CCCCN(Cc4ccncc4)C[C@@H]23)cc1", "CPE inhibition": "inconclusive: 43.3%"}, {"compound": "CO[C@@H]1CN(C)C(=O)c2cc(NC(=O)NC(C)C)ccc2OC[C@H](C)N(C(=O)C2CCC2)C[C@@H]1C", "CPE inhibition": "inactive: -1.45%"}, {"compound": "COc1ccc(/C=C/CN2CCC(CO)(Cc3ccccc3Cl)CC2)cc1", "CPE inhibition": "inconclusive: 26.1%"}, {"compound": "CCOC(=O)CSc1nc2ccccc2c(=O)n1CC(C)C", "CPE inhibition": "inactive: 4.88%"}, {"compound": "CC(C)NC(=O)N(C)C[C@@H]1Oc2ncc(C3=CCCCC3)cc2C(=O)N([C@H](C)CO)C[C@@H]1C", "CPE inhibition": "inactive: 4.71%"}, {"compound": "CCCCCCN1C[C@@H](n2cc(COC(=O)c3ccccc3)nn2)[C@H](O)C[C@@H]1c1ccc(Cl)cc1", "CPE inhibition": "inactive: -6.61%"}, {"compound": "Cc1noc(C)c1NC(=O)N(C)C[C@@H]1OCCCC[C@H](C)Oc2ccc(NC(=O)NC3CCCCC3)cc2C(=O)N([C@@H](C)CO)C[C@@H]1C", "CPE inhibition": "active: 23%"}, {"compound": "COc1ccc(NS(=O)(=O)c2cccc(C(=O)NCc3ccccc3CN3CCOCC3)c2)cc1", "CPE inhibition": "inconclusive: 25.1%"}, {"compound": "Cc1noc(C)c1S(=O)(=O)N(C)C[C@@H]1OCCCC[C@H](C)Oc2ccc(NC(=O)CCCN(C)C)cc2C(=O)N([C@H](C)CO)C[C@H]1C", "CPE inhibition": "inactive: -8.34%"}, {"compound": "C[C@@H]1CN([C@H](C)CO)C(=O)c2cc(N(C)C)ccc2O[C@@H](C)CCCCO[C@@H]1CN(C)C(=O)NC1CCCCC1", "CPE inhibition": "inconclusive: 38.4%"}, {"compound": "CCCCCCCCCC[n+]1cccc(C(=O)N(CC)CC)c1", "CPE inhibition": "inactive: -2.46%"}, {"compound": "O=C1CNC[C@H]2[C@H](c3ccc(-c4ccccc4F)cc3)[C@@H](CO)N12", "CPE inhibition": "active: 37%"}, {"compound": "COc1ccc(S(=O)(=O)Nc2ccccc2C(=O)N2CCOCC2)cc1Cl", "CPE inhibition": "inconclusive: 51.4%"}, {"compound": "COc1ccc(C(=O)OCC(=O)N2CCN(S(=O)(=O)c3ccc(C)cc3)CC2)cc1[N+](=O)[O-]", "CPE inhibition": "inconclusive: 30.1%"}, {"compound": "C[C@@H]1CN([C@@H](C)CO)C(=O)c2cc(NC(=O)Cc3ccccc3)ccc2O[C@H]1CN(C)C(=O)Nc1ccc2c(c1)OCO2", "CPE inhibition": "inconclusive: 27.4%"}, {"compound": "COc1cccc(C(=O)Nc2ccc3c(c2)OC[C@@H](C)N(C)C[C@@H](C)[C@@H](OC)CN(C)C3=O)c1", "CPE inhibition": "inconclusive: 30.8%"}, {"compound": "Cc1cc(SCNC(=O)c2ccccc2)nc(C(C)C)n1", "CPE inhibition": "inconclusive: 31.3%"}, {"compound": "COc1ccccc1Nc1nc(NCC2CCCO2)c2ccccc2n1", "note": "(centres undefined)", "CPE inhibition": "inconclusive: 21.9%"}, {"compound": "CCCNC(=O)[C@@H]1[C@@H](CO)[C@@H]2Cn3c(ccc(C4=CCCCC4)c3=O)[C@H]1N2Cc1cocn1", "CPE inhibition": "inactive: 19.3%"}, {"compound": "O=c1c2ccccc2nc(/C=C/c2cccc(Br)c2)n1CCCO", "CPE inhibition": "inconclusive: 20.5%"}, {"compound": "C[C@@H]1CN([C@@H](C)CO)C(=O)c2cccc(NC(=O)C3CCOCC3)c2O[C@@H]1CN(C)Cc1ccc(C(F)(F)F)cc1", "CPE inhibition": "inconclusive: 29.2%"}, {"compound": "O=C(/C=C/c1ccc([N+](=O)[O-])cc1)c1ccccc(=O)c1O", "CPE inhibition": "inconclusive: 43.6%"}, {"compound": "C[C@@H]1CN([C@H](C)CO)C(=O)c2cc(NS(=O)(=O)c3ccccc3)ccc2O[C@@H](C)CCCCO[C@@H]1CN(C)Cc1ccccc1", "CPE inhibition": "inconclusive: 52.9%"}, {"compound": "COC(=O)C[C@@H]1CC[C@@H]2[C@H](COc3ccc(NS(=O)(=O)c4ccccc4Cl)cc3C(=O)N2C)O1", "CPE inhibition": "inconclusive: 55.1%"}, {"compound": "COc1ccccc1NC(=O)C(C)OC(=O)c1cccc(-n2cnnn2)c1", "note": "(centres undefined)", "CPE inhibition": "inconclusive: 37.3%"}, {"compound": "O=C(Nc1ccc(S(=O)(=O)NCc2ccco2)cc1)c1ccc(F)cc1", "CPE inhibition": "inconclusive: 34%"}, {"compound": "CC(C)c1ccc(NC(=O)[C@@H]2CCC(=O)N2C2OC(=O)c3ccccc32)cc1", "note": "(some centres undefined)", "CPE inhibition": "inconclusive: 21.7%"}, {"compound": "CN(Cc1ccccc1)CC1CC(c2ccccc2)OC(c2ccc(NC(=O)CCCCCCC(=O)O)cc2)O1", "note": "(centres undefined)", "CPE inhibition": "inconclusive: 20.9%"}, {"compound": "Cc1ccc(NC(=O)n2ccc(-c3ccc(-n4ccnc4)cc3)n2)cc1", "CPE inhibition": "inactive: -4.53%"}, {"compound": "CN(C)CC#Cc1ccc([C@@H]2[C@H](CO)N3CCCCN(C(=O)Nc4ccccc4F)C[C@@H]23)cc1", "CPE inhibition": "inconclusive: 22.9%"}]}]}
